Reference: patent publication US20180369326A1 (LA JOLLA INSTITUTE FOR ALLERGY AND IMMUNOLOGY, published 2018)
No constants are given. Whether binding was seen depends on the method and setting. For some assays here: In cells and extracts the contact can be indirect. Some entries that bind do so weakly or less than the wild type. For some assays here: Sequences can lack the tags named with a protein.

Protein sequences, listed by entry. Tags and fused reporters are not part of them. Lines headed by an entry give the natural chain unless they say otherwise; changes in a name come on top. Residues count along the entry.
UniProt Q9Y6W8: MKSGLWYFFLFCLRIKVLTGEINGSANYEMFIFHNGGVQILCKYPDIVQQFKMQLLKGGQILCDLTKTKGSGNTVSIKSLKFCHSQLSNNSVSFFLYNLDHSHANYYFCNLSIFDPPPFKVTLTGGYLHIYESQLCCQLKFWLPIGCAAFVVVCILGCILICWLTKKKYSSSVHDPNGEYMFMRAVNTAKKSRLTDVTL
UniProt P27986, residues 2-724: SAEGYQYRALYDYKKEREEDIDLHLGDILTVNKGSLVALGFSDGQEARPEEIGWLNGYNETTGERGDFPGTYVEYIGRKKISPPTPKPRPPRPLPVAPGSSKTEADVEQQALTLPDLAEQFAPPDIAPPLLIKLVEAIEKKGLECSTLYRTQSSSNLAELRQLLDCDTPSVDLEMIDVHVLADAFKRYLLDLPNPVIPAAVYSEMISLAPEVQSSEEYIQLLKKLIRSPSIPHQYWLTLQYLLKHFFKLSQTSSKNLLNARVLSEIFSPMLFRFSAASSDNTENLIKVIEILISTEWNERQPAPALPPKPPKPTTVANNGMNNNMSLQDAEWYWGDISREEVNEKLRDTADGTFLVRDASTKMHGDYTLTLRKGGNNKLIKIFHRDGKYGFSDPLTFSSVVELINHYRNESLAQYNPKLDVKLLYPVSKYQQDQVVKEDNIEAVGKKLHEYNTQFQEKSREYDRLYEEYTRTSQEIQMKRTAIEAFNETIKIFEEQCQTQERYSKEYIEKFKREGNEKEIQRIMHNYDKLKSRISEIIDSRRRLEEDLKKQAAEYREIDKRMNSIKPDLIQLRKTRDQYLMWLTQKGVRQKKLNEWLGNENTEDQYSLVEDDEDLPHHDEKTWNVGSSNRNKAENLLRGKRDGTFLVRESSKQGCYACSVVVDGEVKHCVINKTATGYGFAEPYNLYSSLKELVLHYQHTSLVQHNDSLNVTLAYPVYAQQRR

Legend:
[1] = target: WT ICOS (wild-type inducible T-cell costimulator, transfected into Jurkat JTAg T cells) (Homo sapiens (Human)) (UniProt Q9Y6W8); assay: co-IP (anti-ICOS IP, immunoblot), transfected Jurkat cells; binding to WT ICOS is implied by its loss in YF (FIG. 2b, 2c)
[2] = target: WT ICOS (wild-type inducible T-cell costimulator, transfected into Jurkat JTAg T cells) (Homo sapiens (Human)) (UniProt Q9Y6W8); assay: SILAC proteomics of anti-ICOS IPs from Jurkat cells
[3] = target: T1, FLAG-tagged WT TRAF2 (Homo sapiens (Human)) (UniProt Q12933); assay: anti-FLAG IP and immunoblot, transfected HEK293T cells (FIG. 6d)
T1 sequence: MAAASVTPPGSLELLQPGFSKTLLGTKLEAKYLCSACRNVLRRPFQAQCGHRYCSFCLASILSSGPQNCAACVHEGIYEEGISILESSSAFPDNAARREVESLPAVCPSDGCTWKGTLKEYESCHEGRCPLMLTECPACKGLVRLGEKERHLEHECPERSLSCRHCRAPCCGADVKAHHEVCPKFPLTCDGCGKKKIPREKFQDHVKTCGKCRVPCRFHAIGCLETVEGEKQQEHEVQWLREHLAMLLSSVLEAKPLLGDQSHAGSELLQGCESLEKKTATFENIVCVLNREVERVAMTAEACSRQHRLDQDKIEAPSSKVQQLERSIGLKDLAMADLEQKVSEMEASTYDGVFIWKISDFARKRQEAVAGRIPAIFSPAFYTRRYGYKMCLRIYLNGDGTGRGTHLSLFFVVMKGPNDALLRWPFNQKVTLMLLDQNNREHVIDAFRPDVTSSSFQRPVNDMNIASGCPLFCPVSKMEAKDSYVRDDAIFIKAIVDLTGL

[4] = target: WT ICOS (wild-type inducible T-cell costimulator, transfected into Jurkat JTAg T cells) (Homo sapiens (Human)) (UniProt Q9Y6W8); assay: co-IP and immunoblot, transfected Jurkat cells (legend of FIG. 2b)
[5] = target: WT ICOS (wild-type inducible T-cell costimulator, transfected into Jurkat JTAg T cells) (Homo sapiens (Human)) (UniProt Q9Y6W8); assay: co-IP (anti-ICOS IP, immunoblot), transfected Jurkat cells stimulated with anti-CD3 plus anti-ICOS (FIG. 2b)

“p85α, the regulatory subunit of PI3K, endogenous, Jurkat cells (from UniProt P27986 2-724)” was tested. Which binding [1] did it give?
Its binding is “binds”.

B1: TANK-binding kinase 1 (TBK1), endogenous, human cell lines (Jurkat JTAg, HEK293T) (enzyme, UniProt Q9UHD2 1-729, looked up)
chain: MQSTSNHLWLLSDILGQGATANVFRGRHKKTGDLFAIKVFNNISFLRPVDVQMREFEVLKKLNHKNIVKLFAIEEETTTRHKVLIMEFCPCGSLYTVLEEPSNAYGLPESEFLIVLRDVVGGMNHLRENGIVHRDIKPGNIMRVIGEDGQSVYKLTDFGAARELEDDEQFVSLYGTEEYLHPDMYERAVLRKDHQKKYGATVDLWSIGVTFYHAATGSLPFRPFEGPRRNKEVMYKIITGKPSGAISGVQKAENGPIDWSGDMPVSCSLSRGLQVLLTPVLANILEADQEKCWGFDQFFAETSDILHRMVIHVFSLQQMTAHKIYIHSYNTATIFHELVYKQTKIISSNQELIYEGRRLVLEPGRLAQHFPKTTEENPIFVVSREPLNTIGLIYEKISLPKVHPRYDLDGDASMAKAITGVVCYACRIASTLLLYQELMRKGIRWLIELIKDDYNETVHKKTEVVITLDFCIRNIEKTVKVYEKLMKINLEAAELGEISDIHTKLLRLSSSQGTIETSLQDIDSRLSPGGSLADAWAHQEGTHPKDRNVEKLQVLLNCMTEIYYQFKKDKAERRLAYNEEQIHKFDKQKLYYHATKAMTHFTDECVKKYEAFLNKSEEWIRKMLHLRKQLLSLTNQCFDIEEEVSKYQEYTNELQETLPQKMFTASSGIKHTMTPIYPSSNTLVEMTLGMKKLKEEMEGVVKELAENNHILERFGSLTMDGGLRNVDCL
notes: Species follows from the human cell lines; also called endogenous TBK1
With B1 as the molecule, how does the binding [2] read?
The binding was “binds”.

What about the binding [3] of the same molecule?
Its binding is “binds”.

And the binding [4]?
Its binding is “binds”.

What about the binding [5] of the same molecule?
The binding was “binds”.
